In PMC9182292:
These are yes or no findings as the source states them, for the method shown. Binding seen in cells or lysates may run through a third protein. Some entries that bind do so weakly or less than the wild type.

By UniProt entry, the sequences of proteins in these tests, tags left out.
UniProt P63104: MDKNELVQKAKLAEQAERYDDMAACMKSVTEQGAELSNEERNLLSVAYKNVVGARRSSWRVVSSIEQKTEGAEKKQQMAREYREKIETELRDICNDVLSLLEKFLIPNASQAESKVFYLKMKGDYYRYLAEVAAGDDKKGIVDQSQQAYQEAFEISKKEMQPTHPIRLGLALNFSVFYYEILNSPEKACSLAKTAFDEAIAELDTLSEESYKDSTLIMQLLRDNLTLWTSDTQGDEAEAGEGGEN
UniProt O88704: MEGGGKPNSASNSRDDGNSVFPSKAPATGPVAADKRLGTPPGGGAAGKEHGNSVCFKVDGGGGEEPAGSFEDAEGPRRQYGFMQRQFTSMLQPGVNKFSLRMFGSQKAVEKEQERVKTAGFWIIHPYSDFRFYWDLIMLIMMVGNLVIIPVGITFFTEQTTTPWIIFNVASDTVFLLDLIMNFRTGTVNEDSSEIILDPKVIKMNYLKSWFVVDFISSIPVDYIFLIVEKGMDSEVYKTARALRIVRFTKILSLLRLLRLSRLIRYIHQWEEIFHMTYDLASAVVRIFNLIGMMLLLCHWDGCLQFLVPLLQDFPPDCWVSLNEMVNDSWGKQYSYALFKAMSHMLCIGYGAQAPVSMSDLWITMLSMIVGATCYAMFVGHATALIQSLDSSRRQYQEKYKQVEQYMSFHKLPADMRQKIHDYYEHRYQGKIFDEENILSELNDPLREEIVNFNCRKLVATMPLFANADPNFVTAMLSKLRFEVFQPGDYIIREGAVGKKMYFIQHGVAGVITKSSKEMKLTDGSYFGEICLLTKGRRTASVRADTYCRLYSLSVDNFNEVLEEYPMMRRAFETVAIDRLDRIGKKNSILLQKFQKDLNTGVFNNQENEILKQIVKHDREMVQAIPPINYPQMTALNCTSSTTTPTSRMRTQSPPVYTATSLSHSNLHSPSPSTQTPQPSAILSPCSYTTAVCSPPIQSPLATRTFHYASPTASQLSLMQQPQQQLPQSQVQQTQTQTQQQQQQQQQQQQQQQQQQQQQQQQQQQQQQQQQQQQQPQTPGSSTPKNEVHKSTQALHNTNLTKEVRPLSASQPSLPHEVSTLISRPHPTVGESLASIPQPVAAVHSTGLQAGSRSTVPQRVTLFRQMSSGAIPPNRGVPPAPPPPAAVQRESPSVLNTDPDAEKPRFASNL

Target: human 6His-14-3-3ζ (human) (UniProt P63104)
Assay: pull-down; 6His-14-3-3ζ immobilised on Ni-NTA resin (5 mg for brain, 0.5 mg for retina and HEK293 cells expressing full-length HCN1), lysate overnight at 4°C, 1% Triton X-100 in PBS with 25 mM imidazole; blot for HCN1; control: resin only; only the target purified

Row | binding | Substance
1 | binds | HCN1 (endogenous, mouse retina and whole brain) (from UniProt O88704 1-910)
2 | binds | full-length mouse HCN1 expressed in HEK293 cells (from UniProt O88704 1-910)
